Reference: article PMC5557939
These are yes or no findings as the source states them, for the method shown. In cells and extracts the contact can be indirect. Here binding means that the protein was enriched with, or labelled near, the bait; the list need not be complete.

The chains behind the UniProt entries cited, without tags or fusion partners.
UniProt Q5SVQ0: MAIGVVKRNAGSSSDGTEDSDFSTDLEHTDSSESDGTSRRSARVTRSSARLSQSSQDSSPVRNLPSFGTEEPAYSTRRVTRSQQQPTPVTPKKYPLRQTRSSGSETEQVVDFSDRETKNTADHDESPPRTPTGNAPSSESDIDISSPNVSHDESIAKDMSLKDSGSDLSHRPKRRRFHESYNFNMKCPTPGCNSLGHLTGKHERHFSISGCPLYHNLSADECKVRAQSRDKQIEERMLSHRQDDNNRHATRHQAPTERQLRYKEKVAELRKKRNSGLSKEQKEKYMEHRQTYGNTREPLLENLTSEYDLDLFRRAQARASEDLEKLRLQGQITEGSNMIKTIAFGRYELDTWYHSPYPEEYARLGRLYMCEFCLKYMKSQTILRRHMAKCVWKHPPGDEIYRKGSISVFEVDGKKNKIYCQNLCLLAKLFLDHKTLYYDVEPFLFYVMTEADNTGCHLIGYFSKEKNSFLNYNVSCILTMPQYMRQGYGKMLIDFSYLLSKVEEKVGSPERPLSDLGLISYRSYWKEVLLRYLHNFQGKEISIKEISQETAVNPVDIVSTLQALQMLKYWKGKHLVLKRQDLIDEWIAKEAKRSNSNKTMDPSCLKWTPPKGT
UniProt B2KF05: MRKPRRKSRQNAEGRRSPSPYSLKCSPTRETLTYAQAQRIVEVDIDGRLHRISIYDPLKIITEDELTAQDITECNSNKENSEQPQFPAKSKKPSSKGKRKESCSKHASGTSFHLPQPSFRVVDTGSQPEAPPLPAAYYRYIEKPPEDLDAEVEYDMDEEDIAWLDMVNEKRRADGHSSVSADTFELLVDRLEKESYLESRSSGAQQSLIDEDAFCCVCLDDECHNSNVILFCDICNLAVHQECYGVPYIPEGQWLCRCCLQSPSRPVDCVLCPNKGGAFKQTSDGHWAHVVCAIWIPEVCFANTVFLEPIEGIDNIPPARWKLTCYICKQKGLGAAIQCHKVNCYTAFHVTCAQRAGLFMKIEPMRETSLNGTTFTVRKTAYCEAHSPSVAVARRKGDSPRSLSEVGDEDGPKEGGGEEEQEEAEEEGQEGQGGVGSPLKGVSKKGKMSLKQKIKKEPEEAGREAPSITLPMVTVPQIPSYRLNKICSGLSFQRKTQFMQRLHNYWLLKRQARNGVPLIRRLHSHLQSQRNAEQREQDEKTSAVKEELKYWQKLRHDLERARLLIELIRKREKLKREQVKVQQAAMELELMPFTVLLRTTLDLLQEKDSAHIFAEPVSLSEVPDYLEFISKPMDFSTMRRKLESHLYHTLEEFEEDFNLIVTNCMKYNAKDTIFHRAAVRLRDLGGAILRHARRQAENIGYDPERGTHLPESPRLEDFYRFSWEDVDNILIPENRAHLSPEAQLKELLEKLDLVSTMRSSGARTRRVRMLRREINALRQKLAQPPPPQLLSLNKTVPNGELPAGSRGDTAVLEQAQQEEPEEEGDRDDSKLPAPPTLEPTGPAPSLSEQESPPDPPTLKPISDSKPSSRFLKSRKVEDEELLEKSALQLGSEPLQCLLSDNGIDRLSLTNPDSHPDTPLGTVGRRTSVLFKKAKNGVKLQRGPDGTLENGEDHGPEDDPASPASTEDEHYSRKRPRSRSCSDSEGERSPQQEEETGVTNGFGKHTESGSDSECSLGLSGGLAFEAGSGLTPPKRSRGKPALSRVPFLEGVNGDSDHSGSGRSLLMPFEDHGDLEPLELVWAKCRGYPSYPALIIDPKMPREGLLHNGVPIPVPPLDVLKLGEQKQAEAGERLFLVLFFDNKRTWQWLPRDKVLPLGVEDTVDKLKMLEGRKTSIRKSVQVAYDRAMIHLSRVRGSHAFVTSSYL
UniProt Q8C0D7: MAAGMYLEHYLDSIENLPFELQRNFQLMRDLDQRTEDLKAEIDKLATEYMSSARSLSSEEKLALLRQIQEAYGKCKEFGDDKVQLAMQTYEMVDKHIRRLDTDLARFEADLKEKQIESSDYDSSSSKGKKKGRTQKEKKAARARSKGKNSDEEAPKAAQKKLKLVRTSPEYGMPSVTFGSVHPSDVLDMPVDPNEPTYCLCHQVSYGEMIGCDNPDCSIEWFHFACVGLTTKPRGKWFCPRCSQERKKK
UniProt Q9D8Y8: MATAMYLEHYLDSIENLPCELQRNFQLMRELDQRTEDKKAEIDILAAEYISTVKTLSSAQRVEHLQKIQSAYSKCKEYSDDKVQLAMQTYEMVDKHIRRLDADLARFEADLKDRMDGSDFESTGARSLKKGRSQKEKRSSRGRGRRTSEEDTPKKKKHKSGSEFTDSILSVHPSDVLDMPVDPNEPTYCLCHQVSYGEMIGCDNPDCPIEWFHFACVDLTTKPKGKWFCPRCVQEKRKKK
UniProt Q6ZQF7: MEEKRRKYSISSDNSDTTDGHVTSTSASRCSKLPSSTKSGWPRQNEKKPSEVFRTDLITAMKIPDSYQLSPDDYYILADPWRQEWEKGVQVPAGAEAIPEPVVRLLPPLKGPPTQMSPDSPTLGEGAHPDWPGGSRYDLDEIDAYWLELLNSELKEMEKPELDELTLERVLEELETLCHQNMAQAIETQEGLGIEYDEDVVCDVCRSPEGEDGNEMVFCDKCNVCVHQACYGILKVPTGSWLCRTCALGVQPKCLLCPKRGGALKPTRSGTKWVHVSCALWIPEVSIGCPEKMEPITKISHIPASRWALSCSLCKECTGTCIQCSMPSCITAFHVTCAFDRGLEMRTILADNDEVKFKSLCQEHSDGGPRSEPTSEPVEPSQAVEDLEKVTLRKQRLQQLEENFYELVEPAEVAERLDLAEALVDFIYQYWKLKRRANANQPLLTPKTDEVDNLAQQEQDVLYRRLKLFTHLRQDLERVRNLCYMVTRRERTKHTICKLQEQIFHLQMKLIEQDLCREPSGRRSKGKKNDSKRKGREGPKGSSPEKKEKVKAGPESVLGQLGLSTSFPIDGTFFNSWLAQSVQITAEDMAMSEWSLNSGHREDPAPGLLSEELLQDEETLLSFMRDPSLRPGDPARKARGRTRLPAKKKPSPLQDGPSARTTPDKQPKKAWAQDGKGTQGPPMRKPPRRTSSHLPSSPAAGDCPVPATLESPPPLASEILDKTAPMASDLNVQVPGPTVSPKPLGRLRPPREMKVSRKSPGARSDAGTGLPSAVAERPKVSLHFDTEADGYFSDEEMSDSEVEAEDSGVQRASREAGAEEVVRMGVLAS

Key:
Myst2-FTAP (mouse) [1] = molecular target: Myst2-FTAP (mouse) (UniProt Q5SVQ0); assay: affinity purification with mass spectrometry; single FLAG immunoprecipitation of Myst2-FTAP complexes, native eluate fractionated by blue native PAGE, 48 fractions, quantitative mass spectrometry, hierarchical clustering of migration profiles (ABC-MS)
Myst2-FTAP (mouse) [2] = molecular target: Myst2-FTAP (mouse) (UniProt Q5SVQ0); assay: affinity purification with mass spectrometry; tandem affinity purification (TAP) of Myst2-FTAP from whole cell extracts of 10e9 mouse ESCs, high salt lysis buffer (450 mM NaCl); TEV eluate on calmodulin resin, EGTA elution; three replicates; control beta-gal-FTAP

Brpf3 (from UniProt B2KF05 1-1204)
binding (Myst2-FTAP (mouse) [1]): binds
binding (Myst2-FTAP (mouse) [2]): binds

Ing4 (from UniProt Q8C0D7 1-249)
binding (Myst2-FTAP (mouse) [1]): binds
binding (Myst2-FTAP (mouse) [2]): binds

Ing5 (from UniProt Q9D8Y8 1-240)
binding (Myst2-FTAP (mouse) [1]): binds
binding (Myst2-FTAP (mouse) [2]): binds

Phf15 (from UniProt Q6ZQF7 1-829)
binding (Myst2-FTAP (mouse) [1]): binds
binding (Myst2-FTAP (mouse) [2]): binds

Phf17 (from UniProt Q6ZPI0-1 1-834)
binding (Myst2-FTAP (mouse) [1]): binds
binding (Myst2-FTAP (mouse) [2]): binds

B1: Phf16 (protein, UniProt Q6IE82 1-823)
chain: MKRHRPVSSSESSDECPSTSFTSSSMYRKKSKNPKEQKKSAEVFRKDLISAMKIPDSHHVNPDSYYLFTDTWKEEWEKGVQVPANPDSVPTPSLRIISEKVKEMLFVRPRKYIRCSSPESAEPGYINTLEQAASTCRYDLDDMDIFWLQELNEDLGEMGYGPIDETLMEKTIEVLERHCHENMNHAIETVEGLGIEYDEDVICDVCRSPDSEEGNDMVFCDKCNVCVHQACYGILKIPEGSWLCRSCVLGIYPQCVLCPKKGGAMKTTRTGTKWAHVSCALWIPEVSIACPERMEPVTKISHIPPSRWALVCNLCKLKTGACIQCSVKSCITAFHVTCAFEHGLEMKTILDEGDEVKFKSFCLKHSQNKPKLGDAEYHHHRVAEQSQAKSEKTSLRAQKLRELEEEFYTLVQVEDVAKEMELSAFTVDFIYNYWKLKRKSNFNKPLIPPKEEEENGLVQPKEESIHTRMRMFMHLRQDLERVRNLCYMISRREKLKLSHTKVQEQIFGLQVQLINEEITEGLSLTNALENSLFYPPPRITLKLKMPKSTSEDCKDSSTETEHQLSSPGSSSPGHSKRSPQMPEEPLDMNVKIYPRYPLESKSNCLQTSRSHSRCETKSSSPTPRAPSAEFYHGQSLGKPLALQAALHGQVSIGNGKNQPNSRVSSSNGLEGNWSGNITQKVNSSEVCYDQESMLSSHLPSPGNIRKSSMEHFSRSFKEATNTWVKPTEDLQYCVKPTKNVSSKEQLWGRQLLRRPTGRASYQETDGYCPDLEPSDSEAEGEGSKETPRVKRESSDRENPSHDSARECHGKTKTHPHSHSSMQR
binding (Myst2-FTAP (mouse) [1]): binds
binding (Myst2-FTAP (mouse) [2]): binds
